Test results as given in PubChem BioAssay AID2551 (National Center for Advancing Translational Sciences (NCATS), 2010).
The whole screen tested about 310,000 compounds, of which about 17,000 (5.5%) were called active. The inconclusive results got no clear call from the source; some entries with a clear call stand among them for comparison. Calls come from the whole dose curve; as a rule, active = well fitted inhibition curve with a large enough effect; inconclusive = small, poorly fitted or top-dose-only effect, or effect the other way; inactive = no such curve, though single readings can be large or run the other way. Where the call is inconclusive, the potency comes from a doubtful curve fit.

By UniProt entry, the sequences of proteins in these tests, tags left out. Where a name states a change or a piece, a line headed by the entry shows the natural chain unless it says otherwise.
UniProt P51450: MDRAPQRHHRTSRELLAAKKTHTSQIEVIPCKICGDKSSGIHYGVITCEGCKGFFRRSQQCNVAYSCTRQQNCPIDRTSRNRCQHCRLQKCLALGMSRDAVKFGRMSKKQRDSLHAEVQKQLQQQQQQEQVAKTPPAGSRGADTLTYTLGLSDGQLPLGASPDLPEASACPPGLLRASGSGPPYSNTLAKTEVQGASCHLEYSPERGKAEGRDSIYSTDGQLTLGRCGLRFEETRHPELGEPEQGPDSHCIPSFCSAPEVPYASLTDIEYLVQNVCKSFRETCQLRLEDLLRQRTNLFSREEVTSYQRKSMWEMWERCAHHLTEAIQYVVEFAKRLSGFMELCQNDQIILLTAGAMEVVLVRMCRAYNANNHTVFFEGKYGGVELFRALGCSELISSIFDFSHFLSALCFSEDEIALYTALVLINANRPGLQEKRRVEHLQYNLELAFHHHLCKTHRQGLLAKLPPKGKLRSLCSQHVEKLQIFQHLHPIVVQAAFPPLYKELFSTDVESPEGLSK

molecular target: Nuclear receptor ROR-gamma (Mus musculus) (UniProt P51450); assay: qHTS for inhibitors of ROR gamma transcriptional activity; details: Drosophila S2 Gal4-RORgamma UAS-luciferase reporter, 20 h; activity change, negative = inhibition: at 53.6 µM (top of the series); note: nearly all actives have a fitted effect of over 60% in size
Procedure, shortened: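 Luminescence from a UAS-regulated Photinus luciferase reporter in stably transfected Drosophila Schneider cells is measured; decreased signal marks ROR gamma inhibition. Fusion expression is induced by 700 uM copper sulfate for 20 hr.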
% is set by controls: 0 for no effect and ±100 for the full control effect; potency is the fitted concentration of half-maximal effect.

| Compound | Potency | activity change, negative = inhibition |
| --- | --- | --- |
| CC/C(=C\C1CCCCC1)C(NP(=O)(c1ccccc1)c1ccccc1)c1ccccc1 (stereo unspecified) | inconclusive: 35.5 µM [activator, single point] | – |
| COc1ccc(C(=O)Sc2ccc(C)cc2)cc1OC | inactive | – |
| Cc1cnc(C(=O)Nc2nnc(SCc3c(Cl)cccc3Cl)s2)cn1 | active: 2 µM | – |
| N#Cc1nc(-c2ccccc2F)oc1NCCc1ccccc1 | inconclusive: 22.4 µM [activator, single point] | – |
| CN(Cc1ccccc1)C(=O)c1[nH]cnc1C(=O)NCC(=O)OCc1ccccc1 | active: 11.2 µM | – |
| CC(=O)c1cc(C)ccc1OC(=O)c1cccc2nc(C)oc12 | inconclusive: 11.2 µM [inhibitor, single point] | – |
| NC(=O)c1c(Nc2nc3c(F)cccc3s2)sc2c1CCCC2 | active: 12.6 µM | – |
| Cc1ccc(-c2nc(-c3nccc4ccccc34)oc2-c2ccccc2)cc1 | inconclusive: 14.1 µM [inhibitor, single point] | – |
| CSc1oc(-c2ccc(F)cc2)nc1S(=O)(=O)c1ccccc1 | inconclusive: 0.0063 µM [activator, full curve, poor fit] | – |
| COc1cc(-c2nnn(CC(=O)N3CCOCC3)n2)cc(OC)c1OC | inactive | – |
| O=S(=O)(c1ccc(F)cc1)N1CCC(n2cnc3ccccc32)CC1 | inconclusive: 15.8 µM [activator, single point] | – |
| CC(C)COc1cccc(C(=O)NC2(C)CCS(=O)(=O)C2)c1 (stereo unspecified) | inconclusive: 6.31 µM [activator, single point] | – |
| COc1ccc(C(=O)/C=C/c2ccc(N3CCCCC3)c([N+](=O)[O-])c2)cc1 | inconclusive: 7.94 µM [activator, partial curve] | – |
| Cc1ccc(Cn2nnc3c(=O)[nH]c(C4CCN(S(=O)(=O)Cc5ccccc5)CC4)nc32)cc1 | inconclusive: 0.0141 µM [activator, full curve, poor fit] | – |
| O=c1nc2n(c3ccc(Br)cc13)CCS2 | inconclusive: 35.5 µM [activator, single point] | – |
| CCOC(=O)c1ccc2c(c1)[nH]c(=S)n2CC | active: 8.91 µM | – |
| Cc1ccccc1NC(=O)CN1C(=O)S/C(=C/c2cccnc2)C1=O | inconclusive: 3.16 µM [inhibitor, full curve] | – |
| CCCN(CC(=O)Nc1ccc(Cl)cc1Cl)C(=O)c1ccc(=O)[nH]c1 | inactive | – |
| CCOc1ccc(CNC(=O)c2ccc(Sc3ccc(C)cc3)c(NC(C)=O)c2)cc1OC | inconclusive: 11.2 µM [activator, partial curve] | – |
| CCOc1ccc(NC(=O)c2cccc3c2C(=O)N(Cc2cccnc2)C3)cc1 | inconclusive: 0.891 µM [activator, full curve, poor fit] | – |
| COc1ccccc1NS(=O)(=O)c1ccc2c(c1)OCCO2 | inactive | – |
| CN(C)c1ccc(N=Nc2ccccc2C(=O)OCC(=O)N(C)c2ccccc2)cc1 | inconclusive: 0.447 µM [activator, full curve] | – |
| Cc1ccccc1NC(=O)c1ccccc1O | inconclusive: 35.5 µM [inhibitor, single point] | – |
| CCOc1ccccc1/C=N/n1c(COc2ccccc2)n[nH]c1=S | active: 4.47 µM | – |

An excerpt of these results, with each value named.
O=S(=O)(c1ccc(F)cc1)N1CCC(n2cnc3ccccc32)CC1
  Potency: inconclusive: 15.8 µM [activator, single point]
CC(C)COc1cccc(C(=O)NC2(C)CCS(=O)(=O)C2)c1 (stereo unspecified)
  Potency: inconclusive: 6.31 µM [activator, single point]

(listing goes on)

| Compound | Potency | activity change, negative = inhibition |
| --- | --- | --- |
| O=C(N/N=C/c1cc([N+](=O)[O-])ccc1O)C1CC1 | active: 1.78 µM | – |
| COc1cc(OC)cc(-c2nc(SCC(=O)Nc3ccccc3F)n[nH]2)c1 | inactive | – |
| Cc1c(NC(=O)c2cc(-c3cccs3)nc3ccccc23)c(=O)n(-c2ccccc2)n1C | inactive | – |
| Cc1cccc(NC(=S)NCCN(C2CCCCC2)C2CCCC2)c1 | active: 8.91 µM | – |
| CC(C)(C)c1ccc(OCC2CO2)cc1 (stereo unspecified) | inactive | – |
| CC(=O)OCC(NC(=O)C(CCCCNC(=O)OCc1ccccc1)NC(=O)OC(C)(C)C)C1OC(n2cc(F)c(=O)[nH]c2=O)C(OC(C)=O)C1OC(C)=O (stereo unspecified) | inactive | – |
| O=S(=O)(c1ccc(NC(=S)NCc2ccco2)cc1)N1CCCCC1 | inconclusive: 12.6 µM [activator, partial curve] | – |
| CSc1ncccc1C(=O)Nc1nc(C(C)(C)C)cs1 | inconclusive: 35.5 µM [activator, single point] | – |
| COC(=O)c1ccc(O)c(Sc2cc(C(=O)OC)ccc2O)c1 | inconclusive: 17.8 µM [activator, single point] | – |
| O=C(NCCN1CCN(c2ccc([N+](=O)[O-])cc2)CC1)NCc1ccccc1 | inconclusive: 11.2 µM [activator, single point] | – |
| CCOCCCN1CN(Cc2ccccc2)CNC1=S | active: 2.51 µM | – |
| CCOC(=O)c1cc(S(=O)(=O)Nc2cccc(OC)c2)cn1C | inconclusive: 8.91 µM [activator, partial curve] | – |
| CN(C(=O)CCN1C(=O)/C(=C/c2ccccc2F)SC1=S)C1CCS(=O)(=O)C1 (stereo unspecified) | inconclusive: 15.8 µM [inhibitor, single point] | – |
| Cc1ccc(NC(=O)CC2C(=O)N(Cc3ccccc3)C(=S)N2NC(=O)c2cccc(F)c2)c(C)c1 (stereo unspecified) | inconclusive: 15.8 µM [inhibitor, single point] | – |
| CO[C@@H]1/C=C\CC(=O)N[C@@H](C)C(=O)OC[C@H](NS(=O)(=O)c2ccc(C)cc2)[C@H](C)/C=C\CC(=O)OC[C@H]1C | – | inactive: -14.8% [at 10 µM] |
| CCc1ccc(CN(C)C(=O)c2cc(COc3ccc(OC)cc3Cl)on2)nc1 | inactive | – |
| COc1ccc(CNc2cc(-c3cccc(C#N)c3)ncn2)c(OC)c1 | inconclusive: 20 µM [activator, single point] | – |
| CCc1cc(C=NC2CCCCC2)c(O)s1 | inconclusive: 3.55 µM [activator, partial curve] | – |
| O=C(Nc1ccccn1)C(NS(=O)(=O)c1cccc2nsnc12)c1ccccc1 (stereo unspecified) | inconclusive: 35.5 µM [inhibitor, single point] | – |
| COc1cc(NC(=S)NC(=O)c2ccccc2F)ccc1NC(=O)c1cccs1 | inconclusive: 7.08 µM [inhibitor, partial curve] | – |
| Cc1ccc(C(=O)N/C(=C\c2cccs2)C(=O)NCCc2c[nH]c3ccccc23)cc1C | inconclusive: 11.2 µM [activator, partial curve] | – |
| COc1ccc(C(=O)Nc2ccc(NC(=O)c3cccs3)cc2)cc1[N+](=O)[O-] | inactive | – |
| CCSc1nnc(NC(=O)CSC2=NCCS2)s1 | inconclusive: 35.5 µM [inhibitor, single point] | – |
| Brc1c(-c2ccccc2)nc2n1Cc1ccccc1-2 | inconclusive: 25.1 µM [inhibitor, single point] | – |

An excerpt from above in order of molecular weight, high to low.

| Compound | Potency | activity change, negative = inhibition |
| --- | --- | --- |
| Cc1ccc(C(=O)N/C(=C\c2cccs2)C(=O)NCCc2c[nH]c3ccccc23)cc1C | inconclusive: 11.2 µM [activator, partial curve] | – |
| CCCN(CC(=O)Nc1ccc(Cl)cc1Cl)C(=O)c1ccc(=O)[nH]c1 | inactive | – |
| CCOC(=O)c1cc(S(=O)(=O)Nc2cccc(OC)c2)cn1C | inconclusive: 8.91 µM [activator, partial curve] | – |

Next part

| Compound | Potency | activity change, negative = inhibition |
| --- | --- | --- |
| CN(Cc1cccs1)C(=O)CCCc1c[nH]c2ccccc12 | inconclusive: 11.2 µM [activator, partial curve, poor fit] | – |
| COc1ccc(NC(=O)NCCCCc2ccccc2)c(OC)c1 | inactive | – |
| O=C(NCc1ccc(F)cc1)C(=O)NCC1OCCN1C(=O)c1ccc(Cl)cc1 (stereo unspecified) | inconclusive: 20 µM [activator, single point] | – |
| Cc1c(Cl)cccc1-c1ccc(C(=O)N2CCN(c3ccc([N+](=O)[O-])cc3)CC2)o1 | inconclusive: 12.6 µM [activator, single point] | – |
| COCCN(CCOC)S(=O)(=O)c1ccc(C(=O)Nc2nnc(C)o2)cc1 | active: 10 µM | – |
| COC(=O)CCCCCN1C(=O)/C(=C\c2ccncc2)SC1=S | inconclusive: 35.5 µM [inhibitor, partial curve, poor fit] | – |
| Oc1ccc(Cl)cc1-c1cc(-c2ccccc2)n[nH]1 | active: 1.41 µM | – |
| CCc1cc(C(=O)N2CCCC(C(=O)c3ccc(OC)c(F)c3)C2)n(C)n1 (stereo unspecified) | inactive | – |
| O=C(Nc1ncc(Cc2cccc([N+](=O)[O-])c2)s1)c1ccco1 | inconclusive: 25.1 µM [inhibitor, single point] | – |
| CCCS(=O)(=O)c1nc(S(=O)(=O)c2ccc(C)cc2)c(N2CCc3ccccc3C2)s1 | active: 8.91 µM | – |
| COC(=O)c1sc(-c2ccc(Cl)cc2)cc1NC(=O)/C=C/C(=O)O | inconclusive: 0.794 µM [activator, full curve, poor fit] | – |
| S=C(NCCCCNC(=S)NCc1ccccc1)NCc1ccccc1 | inconclusive: 35.5 µM [inhibitor, single point] | – |
| CCCn1c(N)c(C(=O)NS(=O)(=O)c2ccc(C)cc2)c(=O)n(C)c1=O | inconclusive: 31.6 µM [inhibitor, single point] | – |
| O=c1c2c(nc3nc(NCc4cccc5ccccc45)[nH]n13)CCC2 | inactive | – |
| Cn1c(NC(=O)c2ccccc2)nc2ccccc21 | active: 1 µM | – |
| CCOC(=O)c1sc(=S)n2c1[nH]c(=O)c1ccc(C(=O)OC)cc12 | inconclusive: 2.82 µM [inhibitor, partial curve] | – |
| O=C(CCC1CCCN(C(=O)c2ccsc2)C1)NCc1ccc(F)c(F)c1 (stereo unspecified) | inconclusive: 11.2 µM [activator, partial curve] | – |
| COc1ccccc1CCNC(=O)CCn1c(=O)c2cccn2c2ccc(F)cc21 | inconclusive: 35.5 µM [activator, single point] | – |
| Cc1ccc(-c2cc(C(=O)NCc3ccccn3)c3ccccc3n2)cc1 | inactive | – |
| O=S(=O)(Nc1cccc2ncccc12)c1cccs1 | active: 2.24 µM | – |
| C=C(Br)Cn1c(CCCC)nc2ccccc21 | active: 15.8 µM | – |
| O=C(OCc1ccc(COC(=O)c2ccc(O)cc2)cc1)c1ccc(O)cc1 | inactive | – |
| O=C(NC1CCCC1)c1cc2nc(-c3ccccc3)cc(-c3ccccc3)n2n1 | inconclusive: 3.55 µM [inhibitor, single point] | – |

Record cards, as listed above.
CCc1cc(C=NC2CCCCC2)c(O)s1 as listed: Potency: inconclusive: 3.55 µM [activator, partial curve]
COc1ccccc1CCNC(=O)CCn1c(=O)c2cccn2c2ccc(F)cc21 as listed: Potency: inconclusive: 35.5 µM [activator, single point]
